Measurements reported in PubChem BioAssay AID1259308 (NCATS, 2017).

- Screen: 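Genes whose loss raises luciferase production in HEK293 cells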 (primary screen)
- Cells: human HEK293 embryonic kidney cells stably expressing firefly luciferase (HEK-CMV-Luc2-Hygro)
- Reagents: single siRNA against human genes, 0.8 pmol siRNA per well
- Time to read-out: 72 h
- Measured: 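Luciferase light (ONE-Glo) measured on one replicate plate set and viability (CellTiter-Glo) on the other, scaled to a negative control siRNA, with robust z-scores and luciferase per cell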
- Direction: total luciferase, z-score and total luciferase, % of control: higher = more reporter protein produced; luciferase per cell, z-score: higher = more reporter output per viable cell; viable cells, % of control: higher = more viable cells
- Hit rule: 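Active when the median/MAD z-score for overall luciferase is greater than 3; a gene was taken forward for validation with new siRNAs if at least two of its three siRNAs passed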
- Calls: active = raised luciferase; inactive = no rise
The whole screen tested about 59,000 reagents; shown is an unselected part. About 1,510 of all reagents (2.6%) were called active. 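Calls use total luciferase alone and ignore viability, so some active siRNAs may act by altering cell number.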 The numbers tell different reagents against one gene apart.

no.	target gene	reagent no.	total luciferase, z-score	total luciferase, % of control	luciferase per cell, z-score	viable cells, % of control	Outcome
1	RLN2 (relaxin 2)	1	0.105	84	0.176	89.6	inactive
2	RLN2 (relaxin 2)	2	-1.32	55.6	-1.67	96.5	inactive
3	RLN2 (relaxin 2)	3	-1.52	51.8	-0.292	62.4	inactive
4	RABEP1 (rabaptin, RAB GTPase binding effector protein 1)	1	-1.23	57.3	-0.14	66.5	inactive
5	RABEP1 (rabaptin, RAB GTPase binding effector protein 1)	2	-0.523	71.5	0.0635	78.6	inactive
6	RABEP1 (rabaptin, RAB GTPase binding effector protein 1)	3	0.292	87.7	0.0643	96.3	inactive
7	SYNJ2BP (synaptojanin 2 binding protein)	1	0.255	87	-0.0304	97.9	inactive
8	SYNJ2BP (synaptojanin 2 binding protein)	2	0.674	95.3	0.445	94.7	inactive
9	SYNJ2BP (synaptojanin 2 binding protein)	3	-0.471	72.5	-0.00484	81.1	inactive
10	RBPMS (RNA binding protein, mRNA processing factor)	1	-1.92	43.7	-1.6	74.4	inactive
11	RBPMS (RNA binding protein, mRNA processing factor)	2	-0.721	67.5	-0.467	85.4	inactive
12	RBPMS (RNA binding protein, mRNA processing factor)	3	2.14	125	1.09	105	inactive
13	LRTM2 (leucine rich repeat transmembrane protein 2)	1	-0.978	62.4	-0.701	83.9	inactive
14	LRTM2 (leucine rich repeat transmembrane protein 2)	2	-0.265	76.6	-0.678	102	inactive
15	LRTM2 (leucine rich repeat transmembrane protein 2)	3	2.1	124	1.28	98.8	inactive
16	FZD6 (frizzled class receptor 6)	1	-1.07	60.7	-1.3	95.5	inactive
17	FZD6 (frizzled class receptor 6)	2	-0.755	66.9	-0.702	89.9	inactive
18	FZD6 (frizzled class receptor 6)	3	0.338	88.6	-0.143	103	inactive
19	ECSIT (ECSIT signaling integrator)	1	0.433	90.5	0.773	82.5	inactive
20	ECSIT (ECSIT signaling integrator)	2	-0.347	75	-0.827	104	inactive
21	ECSIT (ECSIT signaling integrator)	3	-1.32	55.6	-1.9	102	inactive
22	PLCD3 (phospholipase C delta 3)	1	-1.12	59.7	-0.916	84.9	inactive
23	PLCD3 (phospholipase C delta 3)	2	-2.71	27.9	-1.95	52.1	inactive
24	PLCD3 (phospholipase C delta 3)	3	-1.2	58.1	-0.862	81.4	inactive
25	FIGNL1 (fidgetin like 1)	1	0.684	95.5	-0.0713	109	inactive
26	FIGNL1 (fidgetin like 1)	2	-0.274	76.4	-0.715	103	inactive
27	FIGNL1 (fidgetin like 1)	3	-0.133	79.2	-0.178	92.8	inactive
28	ATG12 (autophagy related 12)	1	0.272	87.3	0.0133	97.2	inactive
29	ATG12 (autophagy related 12)	2	0.581	93.4	0.696	86.9	inactive
30	ATG12 (autophagy related 12)	3	-0.538	71.2	-0.113	82	inactive
31	RPS14P9 (ribosomal protein S14 pseudogene 9)	1	0.503	91.9	0.14	99	inactive
32	RPS14P9 (ribosomal protein S14 pseudogene 9)	2	-0.995	62.1	-1.05	91.6	inactive
33	RPS14P9 (ribosomal protein S14 pseudogene 9)	3	1.36	109	1.65	78.8	inactive
34	PACC1 (proton activated chloride channel 1)	1	-0.999	62	-1.24	96	inactive
35	PACC1 (proton activated chloride channel 1)	2	-0.461	72.7	-0.249	86.8	inactive
36	PACC1 (proton activated chloride channel 1)	3	1.86	119	1.3	94.2	inactive
37	KCNE2	1	1.59	114	1.55	84.3	inactive
38	KCNE2	2	-2.35	35.2	-1.33	55.9	inactive
39	KCNE2	3	1.96	121	1.38	94	inactive
40	SIM1 (SIM bHLH transcription factor 1)	1	-0.504	71.9	-0.514	91.9	inactive
41	SIM1 (SIM bHLH transcription factor 1)	2	0.215	86.2	-0.0884	98.6	inactive
42	SIM1 (SIM bHLH transcription factor 1)	3	0.45	90.8	0.488	89.3	inactive
43	ZNF491 (zinc finger protein 491)	1	-0.556	70.8	-0.547	91.4	inactive
44	ZNF491 (zinc finger protein 491)	2	-1.17	58.6	-1.24	90.8	inactive
45	ZNF491 (zinc finger protein 491)	3	-0.529	71.4	-0.626	94	inactive
46	CYP2C19 (cytochrome P450 family 2 subfamily C member 19)	1	-0.0362	81.2	0.869	72.2	inactive
47	CYP2C19 (cytochrome P450 family 2 subfamily C member 19)	2	0.908	99.9	1.36	78.1	inactive
48	CYP2C19 (cytochrome P450 family 2 subfamily C member 19)	3	-1.48	52.4	-1.72	92.3	inactive
49	ZNF479 (zinc finger protein 479)	1	-1.25	57.1	-0.842	79.6	inactive
50	ZNF479 (zinc finger protein 479)	2	-0.347	75	-0.689	100	inactive
51	ZNF479 (zinc finger protein 479)	3	-0.724	67.5	-1.08	100	inactive
52	ENTPD1-AS1 (ENTPD1 antisense RNA 1)	1	0.272	87.3	0.0741	95.7	inactive
53	ENTPD1-AS1 (ENTPD1 antisense RNA 1)	2	-0.247	77	0.696	71.6	inactive
54	ENTPD1-AS1 (ENTPD1 antisense RNA 1)	3	-0.643	69.1	-0.348	84.6	inactive
55	CNGA3 (cyclic nucleotide gated channel subunit alpha 3)	1	-0.637	69.2	0.358	70.4	inactive
56	CNGA3 (cyclic nucleotide gated channel subunit alpha 3)	2	-2.21	37.9	-2.71	86.5	inactive
57	CNGA3 (cyclic nucleotide gated channel subunit alpha 3)	3	-1.31	55.9	-1.94	104	inactive

Individual results from the entries so far:
For “total luciferase, z-score”, RPS14P9 (ribosomal protein S14 pseudogene 9) #1 has 0.503
CNGA3 (cyclic nucleotide gated channel subunit alpha 3) #3, total luciferase, % of control → 55.9
Value for FIGNL1 (fidgetin like 1) #2 under “luciferase per cell, z-score”: -0.715
Under “luciferase per cell, z-score”, PACC1 (proton activated chloride channel 1) #1 shows -1.24
For “total luciferase, z-score”, RBPMS (RNA binding protein, mRNA processing factor) #2 has -0.721
For “total luciferase, z-score”, SIM1 (SIM bHLH transcription factor 1) #3 reads 0.45
